# Library screen at single concentrations

Sequences of proteins named here, by UniProt entry; tags and fusion partners are left off. Residues count along the entry.
UniProt A4I591, 1-473: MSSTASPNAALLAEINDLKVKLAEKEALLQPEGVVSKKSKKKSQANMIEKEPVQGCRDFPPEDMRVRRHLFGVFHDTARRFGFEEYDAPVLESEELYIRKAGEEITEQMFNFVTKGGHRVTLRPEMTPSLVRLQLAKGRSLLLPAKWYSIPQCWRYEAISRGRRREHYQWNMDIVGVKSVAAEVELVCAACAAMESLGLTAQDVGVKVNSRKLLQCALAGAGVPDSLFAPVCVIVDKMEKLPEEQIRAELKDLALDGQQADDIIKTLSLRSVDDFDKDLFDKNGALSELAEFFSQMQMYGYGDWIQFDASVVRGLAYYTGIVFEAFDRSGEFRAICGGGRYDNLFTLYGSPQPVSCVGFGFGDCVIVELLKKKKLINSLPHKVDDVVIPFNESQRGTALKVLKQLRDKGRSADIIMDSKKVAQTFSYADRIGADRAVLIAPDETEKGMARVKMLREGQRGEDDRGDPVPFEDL

Data taken from ChEMBL document CHEMBL3988442, “University of Dundee, Small-Polar-MMV Screening Library” (2021).

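Histidine-tRNA ligase, Leishmania infantum (UniProt A4I591). Enzyme assay of histidyl-tRNA synthetase; the read-out is not stated. Tested at 30 µM. Direction is inferred from retests: higher values go with stronger inhibition. The assay is labelled LdHisRS but filed under L. infantum. Size under these conditions: about 69,000 compounds, about 410 of them at 50% or above in at least one test.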

Results are given as percent effect. How 0% and 100% were set is not recorded. Most values in the screen are low, and negative values occur. Compounds were drawn at random from those tested, without regard to their results.

| # | SMILES | percent effect |
|---|---|---|
| 1 | `N#Cc1cccc(N2CCCC3(C2)CN(c2ncc(F)cn2)CCO3)n1` (stereo not given) | 17.24% |
| 2 | `CC(C)N1CCC(c2nccnc2Nc2cnccn2)CC1` | 9.859% |
| 3 | `Cc1ccc(N2CCCc3sc(C(=O)NCC4CCCO4)nc32)nn1` (stereo not given) | 0% |
| 4 | `COCCO[C@H]1CCN(C(=O)c2ccno2)[C@H]1Cc1ccncc1` | 19% |
| 5 | `O=C(N1CCOCC1)[C@@]12CCO[C@@H]1CCN(C1CCCCC1)C2` | 20.51% |
| 6 | `NC(=O)CN(Cc1ncc(-c2ccc(Cl)cc2)o1)C1CCCC1` | 8.29% |
| 7 | `COc1cc(CNCCn2cc(C)cn2)cc2c1OCCO2` | 9.174% |
| 8 | `CCn1ccnc1CN1CCN(CC(O)c2ccc(OC)cc2)CC1` (stereo not given) | 1.835% |
| 9 | `Cc1cc(-n2nnc(C(=O)O)c2-c2ccncc2)ccc1F` | 5.263% |
| 10 | `Cc1csc(Nc2nccnc2C2CCCN2S(C)(=O)=O)n1` (stereo not given) | -13.04% |
| 11 | `COc1ccc(-c2nnc(SC(C)C(=O)NC3CCCC3)[nH]2)c(OC)c1` (stereo not given) | 8.036% |
| 12 | `CCOc1ccc(NC(=O)N2CCOC(C(N)=O)C2)cc1Cl` (stereo not given) | 3.191% |
| 13 | `CNS(=O)(=O)c1ccc(CN(C)Cc2nc3ccc(F)cc3[nH]2)cc1` | 9.574% |
| 14 | `COCCOc1ncccc1C(=O)N(C)c1ccc(OC)nc1` | 19.78% |
| 15 | `COCCN1CCC1c1cc(N)nc(C)n1` (stereo not given) | 0% |
| 16 | `C[C@@H](NC(=O)c1cnccn1)c1c(-c2ccc(Cl)cc2)noc1C(=O)O` | 27.78% |
| 17 | `Cc1nccn1C1CCCN(C(=O)c2cccc(Cn3ccnc3)c2)C1` (stereo not given) | 1.923% |
| 18 | `COCCCN(C)c1ncccc1I` | 2.564% |
| 19 | `COc1ccc(Cc2ncc3c(n2)CN(C(=O)C(C)(C)OC)C3)cc1` | -11.83% |
| 20 | `COc1ncc(-c2c(C#N)c(N)nc3c2CCc2[nH]ccc2-3)cn1` | 95.73% |
| 21 | `O=C([C@H]1CCCO1)N1CCN(CCn2cccn2)c2ncccc2C1` | 2.727% |
| 22 | `COCCCc1nc(-c2ccc(S(=O)(=O)N3CCCC3)cc2)cs1` | 18.42% |
| 23 | `CC(=O)N(C)Cc1cncc(C2CCCN2C2CCOCC2)n1` (stereo not given) | 17.39% |
| 24 | `CN(c1cccc(C#N)c1)S(=O)(=O)c1cc(C(=O)O)ccc1Cl` | 6.838% |
| 25 | `CN(Cc1cc2cc(F)ccc2[nH]1)C(=O)C1CC(=O)N(C2CCCC2)C1` (stereo not given) | 11.48% |
| 26 | `Cc1nc(O)cc([C@@H]2CN(S(=O)(=O)N(C)C)C[C@H]2c2ccccc2F)n1` | 11.27% |
| 27 | `Cc1nc(C)n(CC2CCCN(CCNC(=O)OC(C)(C)C)C2)n1` (stereo not given) | 0% |
| 28 | `Cc1csc(CNc2nc3c(s2)c(C)nn3C)n1` | 25% |
| 29 | `COCCN1CCC2(CC1)CN(C(=O)C1CC1)c1ccc(F)cc12` | 17.48% |
| 30 | `COCCNC(=O)c1sc(Nc2ccc(Cl)cn2)nc1C` | 11.65% |
| 31 | `COc1ccnc(N2CCN(C(=O)N3CCOCC3)CC2)n1` | 7.895% |
| 32 | `CC(CNC(=O)OC(C)(C)C)N(C)C(=O)COc1ccccc1C#N` (stereo not given) | 11.9% |
| 33 | `FC(F)(F)CCc1ncnn1-c1ccc2c(c1)OCO2` | 6.667% |
| 34 | `CC(C)c1nn(C)c(Cl)c1CNCc1ccc(N(C)C)nc1` | 23.21% |
| 35 | `CCN(CC)[C@@H]1CN(C(=O)c2ccnnc2)[C@@H]2CCCO[C@H]12` | 17.09% |
| 36 | `CSc1ccc(-n2nnc(C(=O)O)c2-c2ccccn2)cc1` | 15.79% |
| 37 | `COC1CCN(c2ccc(F)cc2CN(C)S(C)(=O)=O)CC1` | 13.33% |
| 38 | `CN(C)C(C(=O)NCC1(O)CCCCC1)c1cccc(F)c1` (stereo not given) | 21.33% |
| 39 | `CCn1c(C2CCNCC2)nn(CCCc2ccccc2)c1=O` | 13.89% |
| 40 | `CN(CCO)Cc1cc(=O)n2cc(Br)ccc2n1` | -21.67% |
| 41 | `O=C(c1cc2ccccc2s1)N1CCC(C(=O)O)(n2cccn2)CC1` | -80% |
| 42 | `CCC(SC)C(=O)N1CCC(n2cccn2)CC1` (stereo not given) | 2.128% |
| 43 | `CC(C)(C)n1ncc2c1CCCC2NCc1cccc2c1OCO2` (stereo not given) | 2.703% |
| 44 | `CCC1CN(C(=O)c2cncc(C)c2)CCC(=O)N1Cc1ccccc1` (stereo not given) | 14.52% |
| 45 | `Cc1nn(C)c2c(N3CCN(C(=O)NC4CCCCC4)CC3)ncnc12` | 13.59% |
| 46 | `O=C(O)[C@H]1CCCN1CCOc1cccc(Cl)c1` | 3.03% |
| 47 | `COc1cc(C)c(S(=O)(=O)CC(=O)N(C)C2CC2)cc1OC` | 8.333% |

The first 5 entries again:

SMILES	percent effect
N#Cc1cccc(N2CCCC3(C2)CN(c2ncc(F)cn2)CCO3)n1 (stereo not given)	17.24%
CC(C)N1CCC(c2nccnc2Nc2cnccn2)CC1	9.859%
Cc1ccc(N2CCCc3sc(C(=O)NCC4CCCO4)nc32)nn1 (stereo not given)	0%
COCCO[C@H]1CCN(C(=O)c2ccno2)[C@H]1Cc1ccncc1	19%
O=C(N1CCOCC1)[C@@]12CCO[C@@H]1CCN(C1CCCCC1)C2	20.51%